Residue numbers refer to the chain shown, from its start. The exact form of at least one protein or probe is not confirmed. Tags and fusion partners may be left off the protein sequences shown.
Tests used:
[1] = molecular target: T1, RNase H1[K226,227A] K226A,K227A (Homo sapiens) (UniProt O60930); experiment: enzyme reaction in vitro; conditions: initial rate V0; 1 mM MgCl2, 37 C; purified recombinant protein; protein details: His-tag; label: 5'-32P on RNA strand; DNA:RNA hybrid
T1 sequence (looked up, limits assumed): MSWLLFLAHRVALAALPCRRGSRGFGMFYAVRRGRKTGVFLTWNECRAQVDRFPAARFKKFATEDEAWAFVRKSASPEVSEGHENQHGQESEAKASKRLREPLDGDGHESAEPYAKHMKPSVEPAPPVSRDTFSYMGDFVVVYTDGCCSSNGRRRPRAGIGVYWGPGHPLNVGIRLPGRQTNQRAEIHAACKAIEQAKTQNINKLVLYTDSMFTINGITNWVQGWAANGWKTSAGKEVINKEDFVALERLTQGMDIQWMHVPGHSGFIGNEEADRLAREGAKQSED

[2] = molecular target: T2, RNase H1[deltaI-II] del 1-135 (Homo sapiens) (UniProt O60930); experiment: enzyme reaction in vitro; conditions: initial rate V0; 1 mM MgCl2, 37 C; broader cleavage pattern, 7-13 nt from RNA 5' end; purified recombinant protein; protein details: His-tag; label: 5'-32P on RNA strand; DNA:RNA hybrid
T2 sequence (looked up, limits assumed): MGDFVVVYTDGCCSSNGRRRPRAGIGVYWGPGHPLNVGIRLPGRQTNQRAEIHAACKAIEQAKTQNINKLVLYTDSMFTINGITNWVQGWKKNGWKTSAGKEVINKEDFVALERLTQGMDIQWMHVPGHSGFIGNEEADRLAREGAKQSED

[3] = molecular target: T3, RNase H1[deltaII] del 74-135 (Homo sapiens) (UniProt O60930); experiment: enzyme reaction in vitro; conditions: initial rate V0; 1 mM MgCl2, 37 C; purified recombinant protein; protein details: His-tag; label: 5'-32P on RNA strand; DNA:RNA hybrid
T3 sequence (looked up, limits assumed): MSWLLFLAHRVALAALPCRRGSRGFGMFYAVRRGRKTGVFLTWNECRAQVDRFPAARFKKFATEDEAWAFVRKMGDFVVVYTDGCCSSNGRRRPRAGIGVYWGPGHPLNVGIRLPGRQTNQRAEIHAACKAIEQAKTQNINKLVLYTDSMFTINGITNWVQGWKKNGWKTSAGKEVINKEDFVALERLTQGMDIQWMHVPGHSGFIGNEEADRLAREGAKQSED

[4] = molecular target: T4, Human RNase H1 wild-type (Homo sapiens) (UniProt O60930); experiment: enzyme reaction in vitro; conditions: initial rate V0; 1 mM MgCl2, 37 C; purified recombinant protein; label: 5'-32P on RNA strand; DNA:RNA hybrid
T4 sequence (looked up, limits assumed): T1 sequence (looked up, limits assumed) with A226K, A227K

[5] = molecular target: T5, RNase H1[deltaI] del 1-73 (Homo sapiens) (UniProt O60930); experiment: enzyme reaction in vitro; conditions: initial rate V0; 1 mM MgCl2, 37 C; broader cleavage pattern, 7-13 nt from RNA 5' end; purified recombinant protein; protein details: His-tag; label: 5'-32P on RNA strand; DNA:RNA hybrid
T5 sequence (looked up, limits assumed): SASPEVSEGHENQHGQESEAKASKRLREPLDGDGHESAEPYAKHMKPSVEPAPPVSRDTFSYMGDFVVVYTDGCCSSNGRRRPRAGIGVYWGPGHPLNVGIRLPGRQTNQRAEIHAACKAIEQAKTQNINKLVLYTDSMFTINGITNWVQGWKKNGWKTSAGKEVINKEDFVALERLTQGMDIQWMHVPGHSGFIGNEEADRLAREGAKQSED

[6] = molecular target: T6, RNase H1[D145N] (Homo sapiens) (UniProt O60930); experiment: competition with a labelled probe; conditions: inhibits wild-type: wild-type V0 6-fold faster alone than with mutant at 10-fold excess; purified recombinant protein; protein details: His-tag; label: 5'-32P on RNA strand; DNA:RNA hybrid
T6 sequence (looked up, limits assumed): T1 sequence (looked up, limits assumed) with D145N, A226K, A227K

[7] = molecular target: T3, RNase H1[deltaII] del 74-135 (Homo sapiens); experiment: competition with a labelled probe; conditions: wild-type V0 about 50% slower in presence of mutant at 10-fold excess; purified recombinant protein; protein details: His-tag; label: 5'-32P on RNA strand; DNA:RNA hybrid
[8] = molecular target: T7, RNase H1[K226,227,231,236A] K226A,K227A,K231A,K236A (Homo sapiens) (UniProt O60930); experiment: competition with a labelled probe; conditions: wild-type V0 about 60% slower in presence of mutant at 10-fold excess; purified recombinant protein; protein details: His-tag; label: 5'-32P on RNA strand; DNA:RNA hybrid
T7 sequence (looked up, limits assumed): T1 sequence (looked up, limits assumed) with K231A, K236A

GGGCGCCGUCGGUGUGG [17-mer RNA/DNA heteroduplex]
activity on this sequence [1]: active | activity on this sequence [2]: active | activity on this sequence [3]: active | activity on this sequence [4]: active | activity on this sequence [5]: active | binding result [6]: binds | binding result [7]: binds | binding result [8]: binds

Reference: patent publication US20020160486
